# Record: PubChem BioAssay AID1224831 (NIAID, 2016)
# Screen: 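Confirming genome-wide hits on LPS-triggered TNF-alpha induction with independent siRNA sequences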 (follow-up of hits)
# Cell system: human THP-1 B5 monocytic leukaemia cells carrying a TNF promoter luciferase reporter, made macrophage-like with PMA
# Reagent: single siRNA against human genes, 50 nM
# Time to read-out: about 68 h of knock-down, then 4 h LPS
# Challenge: LPS (Salmonella minnesota, TLR-grade) at 10 ng/ml for 4 h; PMA 5 ng/ml present during knock-down
# Detection: 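Firefly to renilla luciferase ratio of a TNF promoter reporter after 4 h LPS, scaled to plate median, turned into robust z-score, averaged over replicates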
# Reading the numbers: TNF reporter z-score: higher = stronger LPS-induced TNF reporter signal; z-score, median over gene's siRNAs: higher = stronger TNF reporter signal across the gene's siRNAs
# Call rule: 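Two-sided call: reduced or raised TNF reporter signal counts as active once mean z reaches about -1 or below, or about 1.5 or above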
# Calls: active = changed TNF reporter (either direction); inactive = little change
# Shown is one part, drawn at random, of about 3,500 deposited reagents. Over the whole deposit, 731 (21%) got an active call. 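Active means either lowered or raised reporter signal; the gene-median score did not drive the per-siRNA calls.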 A number with no mark means an inactive call. Reagents against one gene are numbered here.
"TNF reporter z-score, replicate mean","z-score, median over gene's siRNAs",gene knocked down,reagent no.
-0.2,0.13,AAMDC,1
-0.29,0.13,AAMDC,2
0.46,0.13,AAMDC,3
-1.89 (active),0.13,AAMDC,4
3.78 (active),0.13,AAMDC,5
1.56 (active),0.13,AAMDC,6
0.7,-0.055,P2RY14,1
-1.32 (active),-0.055,P2RY14,2
-0.55,-0.055,P2RY14,3
-0.42,-0.055,P2RY14,4
0.31,-0.055,P2RY14,5
0.89,-0.055,P2RY14,6
1.4,0.36,SCRG1,1
0.96,0.36,SCRG1,2
-0.14,0.36,SCRG1,3
-0.16,0.36,SCRG1,4
0.67,0.36,SCRG1,5
0.05,0.36,SCRG1,6
1.59 (active),-0.14,RELT,1
0.15,-0.14,RELT,2
-0.43,-0.14,RELT,3
-1.07 (active),-0.14,RELT,4
-0.76,-0.14,RELT,5
0.18,-0.14,RELT,6
-0.58,0.245,CHST3,1
0.86,0.245,CHST3,2
2 (active),0.245,CHST3,3
-0.46,0.245,CHST3,4
-0.37,0.245,CHST3,5
2.21 (active),0.245,CHST3,6
-0.26,0.235,STIMATE,1
0.49,0.235,STIMATE,2
0.43,0.235,STIMATE,3
0.04,0.235,STIMATE,4
-1.07 (active),0.235,STIMATE,5
1.37,0.235,STIMATE,6
-1.04 (active),-1.1,PSMB4,1
0.8,-1.1,PSMB4,2
-1.63 (active),-1.1,PSMB4,3
-1.28 (active),-1.1,PSMB4,4
-1.17 (active),-1.1,PSMB4,5
-0.32,-1.1,PSMB4,6
1.47,0.245,PGLYRP3,1
-0.45,0.245,PGLYRP3,2
1.17,0.245,PGLYRP3,3
-0.74,0.245,PGLYRP3,4
0.11,0.245,PGLYRP3,5
0.38,0.245,PGLYRP3,6
-2.3 (active),-0.365,UNC5A,1
-0.73,-0.365,UNC5A,2
0.02,-0.365,UNC5A,3
-0.54,-0.365,UNC5A,4
-0.19,-0.365,UNC5A,5
0.01,-0.365,UNC5A,6
0.81,0.54,ZNF300,1
-0.02,0.54,ZNF300,2
-0.17,0.54,ZNF300,3
0.33,0.54,ZNF300,4
0.75,0.54,ZNF300,5
0.9,0.54,ZNF300,6
0.01,0.39,SPINK5,1
0.6,0.39,SPINK5,2
0.57,0.39,SPINK5,3
0.21,0.39,SPINK5,4
-0.6,0.39,SPINK5,5
2.41 (active),0.39,SPINK5,6
-0.39,-0.33,SHFL,1
-0.28,-0.33,SHFL,2
-0.38,-0.33,SHFL,3
-0.61,-0.33,SHFL,4
0.32,-0.33,SHFL,5
0.26,-0.33,SHFL,6
1.71 (active),-0.005,TCEAL1,1
0,-0.005,TCEAL1,2
-0.16,-0.005,TCEAL1,3
1.77 (active),-0.005,TCEAL1,4
-0.14,-0.005,TCEAL1,5
-0.01,-0.005,TCEAL1,6
-0.07,0.025,BATF2,1
0.62,0.025,BATF2,2
0.77,0.025,BATF2,3
-1.01 (active),0.025,BATF2,4
0.01,0.025,BATF2,5
0.04,0.025,BATF2,6

Only “TNF reporter z-score, replicate mean” (9 entries from above):
SHFL #3	-0.38
SHFL #4	-0.61
SHFL #5	0.32
SHFL #6	0.26
TCEAL1 #1	1.71 (active)
TCEAL1 #2	0
TCEAL1 #3	-0.16
TCEAL1 #4	1.77 (active)
TCEAL1 #5	-0.14
